# Results reported in PubChem BioAssay AID1439 (NMMLSC, 2008).
# Protein sequences, listed by entry. Tags and fused reporters are not part of them.
# UniProt P09471, whole entry, looked up: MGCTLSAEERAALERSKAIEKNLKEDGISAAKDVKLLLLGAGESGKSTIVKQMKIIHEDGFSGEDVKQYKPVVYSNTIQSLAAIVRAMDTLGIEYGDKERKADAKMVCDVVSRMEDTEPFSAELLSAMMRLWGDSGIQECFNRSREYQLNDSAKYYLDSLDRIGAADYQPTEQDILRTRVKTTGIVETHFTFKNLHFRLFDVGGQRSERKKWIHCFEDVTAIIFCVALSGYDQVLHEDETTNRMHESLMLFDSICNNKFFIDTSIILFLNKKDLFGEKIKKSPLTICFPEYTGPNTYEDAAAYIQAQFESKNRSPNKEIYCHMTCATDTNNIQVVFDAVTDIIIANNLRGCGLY
# About 770 (0.35%) of roughly 220,000 compounds were called active. The shares of active, inactive and inconclusive entries below differ from those in the screen. No stated cut-off is given here; in the data, active means binding response below about 49% or above about 150%; inconclusive means no clear call, values can overlap the other calls; inactive means in between.
# Molecular target: Guanine nucleotide-binding protein G(o) subunit alpha (Homo sapiens) (UniProt P09471)
# Test: RGS7-Galphao binding modulators, primary screen, biochemical, multiplexed bead flow cytometry (AID 1439);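 further: fluorescent Galphao held in activated GDP-AlF4 state binding bead-coupled RGS7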
# Conditions: at 10 µM, actives lie on both sides
row,Compound,binding response (% of control)
1,Cc1cnc(C(=O)OCC(=O)NC(C)CCc2ccccc2)cn1 (centres undefined),inactive: 101%
2,COC(=O)c1ccc(C(NC(=O)c2cccnc2)NC(=O)c2cccnc2)cc1,inconclusive: 85.5%
3,O=C(CSc1nnc(SCc2ccccc2)s1)N/N=C/c1ccc(C(=O)O)cc1,inconclusive: 137%
4,CC(C)(C)N(Cc1cc2ccccc2[nH]c1=O)C(=O)c1cccc([N+](=O)[O-])c1,inconclusive: -74.7%
5,CC(C)[N+](C)(C)CC#CC(O)(c1ccccc1)c1ccccc1,inconclusive: 118%
6,CCC(C)Sc1nc2ccccc2n1CC(=O)O (centres undefined),inactive: 93.2%
7,COc1ccc(NC(=O)Nc2cc(C)cc(C)c2)cn1,inconclusive: 52.6%
8,COc1ccccc1-c1noc(CCCC(=O)Nc2ccc(C(N)=O)cc2)n1,inconclusive: 94.9%
9,O=C(Nc1ccc(O)c2c(=O)cc(-c3cccc(Cl)c3)oc12)c1ccccc1Cl,inconclusive: 104%
10,CCCSc1nc2sc3c(c2c(=O)n1CC)CC(C)(C)OC3,inconclusive: 96.7%
11,Cc1cccc(C(=O)NC(=O)Nc2c(C)cc(C)nc2C)c1,inconclusive: 105%
12,CCN(CC)CCOC(=O)c1ccc(N/C=C(/C#N)c2nc(-c3cccc(OC)c3)cs2)cc1,inconclusive: 374%
13,CN(C)S(=O)(=O)c1cc(C(=O)OCCn2cnc3c2c(=O)n(C)c(=O)n3C)ccc1Cl,inconclusive: 93.2%
14,Cc1ccc(S(=O)(=O)N2CCC(=O)N(CCO)CC2)cc1,inactive: 102%
15,O=C(Nc1ccc2ccccc2c1)c1cccc(F)c1,inconclusive: 46.4%
16,Cc1nn(C(C)C(=O)N/N=C/c2ccc(N(C)C)cc2)c(C)c1[N+](=O)[O-] (centres undefined),inconclusive: 119%
17,CC(=O)N(Cc1ccc(Br)cc1)c1ccccc1C(=O)O,inconclusive: 114%
18,Cc1ccc(C2(c3ccc(C)cc3)CC2C(=O)NCc2cccnc2)cc1 (centres undefined),inconclusive: 98.1%
19,Cc1cccc(NC(=O)CN2NS(=O)(=O)c3ccccc3C2=O)c1,inactive: 101%
20,Cc1cc2c(c(=O)n1Cc1ccco1)C(c1ccccc1)C(C#N)=C(N)O2 (centres undefined),inactive: 101%
21,Cc1cc(C(=O)Nc2c(F)c(F)c(F)c(F)c2F)n(-c2ccccc2)n1,inactive: 99.3%
22,CCOC(=O)Nc1ccc(Cc2ccncc2)cc1,inactive: 101%
23,CCOc1ccc(C2C3=C(CCCC3=O)Nc3ccc4ncccc4c32)cc1 (centres undefined),inconclusive: 94.7%

row,Compound,binding response (% of control)
1,COc1ccc(C2/C=C\CN(C(=O)CC(C)(C)C)CC(=O)N2Cc2ccc(F)cc2)cc1 (centres undefined),inconclusive: 128%
2,Cc1nc2ccccc2c(=O)n1CCCN1CCOCC1,inconclusive: 109%
3,C=CCc1ccccc1OCC(=O)N/N=C/c1ccc(OC(C)=O)cc1OC(C)=O,inactive: 100%
4,CCCCOC(=O)Nc1ccc(C(=O)OCCC)cc1,inactive: 105%
5,Cc1ccc(NC(=O)/C(=C\c2ccccc2)NC(=O)c2ccco2)cc1,inconclusive: -11.5%
6,Cc1nn(CCCC(=O)NCc2ccc(F)cc2)c(C)c1[N+](=O)[O-],inactive: 105%
7,O=C(Cc1ccc(Br)cc1)Nc1cccc(Cl)c1,inconclusive: 171%
8,CC1CCCCN1CCNC(=O)C1CCN(S(=O)(=O)c2cccc3cccnc23)CC1 (centres undefined),inactive: 121%
9,Cc1cc(C(=O)OCC(=O)Nc2cc(S(=O)(=O)N(C)C)ccc2Cl)c2ccccc2n1,inconclusive: 85.2%
10,CCC(=O)c1ccc(OCC(=O)NCCc2ccccn2)cc1,inactive: 107%
11,Nc1nonc1-n1nnc(C(=O)N/N=C/C2CC=CCC2)c1CSc1ccccc1 (centres undefined),inconclusive: 151%
12,C=CCCC(=O)Nc1nc(C)c(-c2csc(Nc3cc(OC)ccc3OC)n2)s1,inactive: 103%
13,Cc1cccc(C)c1Nc1c(-c2ccccc2O)nc2ncccn12,inconclusive: 11.1%
14,CC12CCC(C/C1=N\OC(=O)c1c(F)cccc1F)C2(C)C (centres undefined),inconclusive: -19.3%
15,COc1cc(OC)c(NC(=S)NCc2ccccc2)cc1Cl,inactive: 93.9%
16,CCCCCC/C=C/c1ccc(OC)c([C@H]2[C@H]3C=CC[C@@H](C)[C@@H]3C(=O)N2Cc2ccccc2)c1,inconclusive: 117%
17,O=Cc1c(SCCO)nc2ccccn2c1=O,inconclusive: 61.2%
18,Cc1[nH]c2ccccc2c1C(=O)CN1CC(C)OC(C)C1 (centres undefined),inconclusive: 116%
19,NNC(=O)c1[nH]c2ccc(Br)cc2c1-c1ccccc1,inconclusive: 255%
20,C=C1CCN(C(Cc2ccccc2)C(=O)OC)S(=O)(=O)c2ccc(F)cc21 (centres undefined),inconclusive: 83.8%
21,C/C(=N\Nc1ccc(Cl)c(C(=O)O)c1)c1cc2ccccc2o1,inconclusive: 96.8%
22,CN=Cc1cc(-c2ccccc2)sc1O,inactive: 102%
23,Cc1onc(-c2ccccc2)c1CNC(=O)Nc1ccc(C(F)(F)F)cc1,inconclusive: 66.4%

# A different layout for some results above:
row | Compound | binding response (% of control)
21 | Cc1cc(C(=O)Nc2c(F)c(F)c(F)c(F)c2F)n(-c2ccccc2)n1 | inactive: 99.3%
22 | CCOC(=O)Nc1ccc(Cc2ccncc2)cc1 | inactive: 101%
23 | CCOc1ccc(C2C3=C(CCCC3=O)Nc3ccc4ncccc4c32)cc1 (centres undefined) | inconclusive: 94.7%
1 | COc1ccc(C2/C=C\CN(C(=O)CC(C)(C)C)CC(=O)N2Cc2ccc(F)cc2)cc1 (centres undefined) | inconclusive: 128%
2 | Cc1nc2ccccc2c(=O)n1CCCN1CCOCC1 | inconclusive: 109%
3 | C=CCc1ccccc1OCC(=O)N/N=C/c1ccc(OC(C)=O)cc1OC(C)=O | inactive: 100%
4 | CCCCOC(=O)Nc1ccc(C(=O)OCCC)cc1 | inactive: 105%
6 | Cc1nn(CCCC(=O)NCc2ccc(F)cc2)c(C)c1[N+](=O)[O-] | inactive: 105%
7 | O=C(Cc1ccc(Br)cc1)Nc1cccc(Cl)c1 | inconclusive: 171%
8 | CC1CCCCN1CCNC(=O)C1CCN(S(=O)(=O)c2cccc3cccnc23)CC1 (centres undefined) | inactive: 121%
9 | Cc1cc(C(=O)OCC(=O)Nc2cc(S(=O)(=O)N(C)C)ccc2Cl)c2ccccc2n1 | inconclusive: 85.2%
10 | CCC(=O)c1ccc(OCC(=O)NCCc2ccccn2)cc1 | inactive: 107%
11 | Nc1nonc1-n1nnc(C(=O)N/N=C/C2CC=CCC2)c1CSc1ccccc1 (centres undefined) | inconclusive: 151%
12 | C=CCCC(=O)Nc1nc(C)c(-c2csc(Nc3cc(OC)ccc3OC)n2)s1 | inactive: 103%
13 | Cc1cccc(C)c1Nc1c(-c2ccccc2O)nc2ncccn12 | inconclusive: 11.1%
14 | CC12CCC(C/C1=N\OC(=O)c1c(F)cccc1F)C2(C)C (centres undefined) | inconclusive: -19.3%
15 | COc1cc(OC)c(NC(=S)NCc2ccccc2)cc1Cl | inactive: 93.9%
16 | CCCCCC/C=C/c1ccc(OC)c([C@H]2[C@H]3C=CC[C@@H](C)[C@@H]3C(=O)N2Cc2ccccc2)c1 | inconclusive: 117%
18 | Cc1[nH]c2ccccc2c1C(=O)CN1CC(C)OC(C)C1 (centres undefined) | inconclusive: 116%
19 | NNC(=O)c1[nH]c2ccc(Br)cc2c1-c1ccccc1 | inconclusive: 255%
20 | C=C1CCN(C(Cc2ccccc2)C(=O)OC)S(=O)(=O)c2ccc(F)cc21 (centres undefined) | inconclusive: 83.8%
21 | C/C(=N\Nc1ccc(Cl)c(C(=O)O)c1)c1cc2ccccc2o1 | inconclusive: 96.8%
22 | CN=Cc1cc(-c2ccccc2)sc1O | inactive: 102%

# Continued.

row,Compound,binding response (% of control)
1,Cc1cccc(-c2noc(-c3ccccc3C(=O)NCc3ccco3)n2)c1,inconclusive: 111%
2,COC(=O)N/N=C/c1cc(N=Nc2ccccc2Cl)ccc1O,inconclusive: 106%
3,COc1ccc2nc(N/C(N)=N/C(=S)Nc3c(C)cccc3C)nc(C)c2c1,inactive: 118%
4,O=[N+]([O-])c1cnc(Sc2ccncn2)s1,inconclusive: 59.8%
5,Cc1[nH]c2ccccc2c1/C=N/NC(=O)c1cc(C(C)(C)C)[nH]n1,inconclusive: 107%
6,NC(CO)C12CC3CC(CC(C3)C1)C2 (centres undefined),inconclusive: 101%
7,CCn1cc(S(=O)(=O)CC(=O)Nc2ccc3c(c2)OCO3)c2ccccc21,inconclusive: 91.4%
8,S=C(NCC1CCCO1)Nc1ccc(Nc2ccccc2)cc1 (centres undefined),inconclusive: 107%
9,CC(C)C[C@H](NC(=O)c1nc[nH]c1C(=O)N[C@@H](CC(C)C)C(=O)OC(C)(C)C)C(=O)OC(C)(C)C,inconclusive: 98.7%
10,Cc1ccc2nc(NC(=O)CS(=O)(=O)Cc3ccccc3)sc2c1,inconclusive: 98.1%
11,COC(=O)c1c(-c2ccc(C(C)(C)C)cc2)csc1NC(=O)C1C2CCC(O2)C1C(=O)O (centres undefined),inactive: 125%
12,Cc1cc(-c2nc(C)c(-c3nnc(SCC(=O)Nc4cc(Cl)cc(Cl)c4)n3C)s2)no1,inconclusive: 145%
13,CC(=O)NN1C(=O)c2ccccc2NC1c1ccccn1 (centres undefined),inactive: 94.5%
14,Nc1ccccc1C(=O)NNc1c2ccccc2nc2ccccc12,inconclusive: 92.3%
15,O=S(=O)(Nc1ccc(-c2cnco2)cc1)c1ccccc1,inconclusive: 40.4%
16,COc1ccc(-c2nnc(SCC(=O)N/N=C/c3ccccc3C(=O)O)n2-c2ccc(Cl)cc2)cc1,inconclusive: 97.7%
17,Cc1ccc(NC(CNS(=O)(=O)c2ccc(Cl)cc2)c2ccccc2)cc1 (centres undefined),active: 255% [activator]
18,CCN(CC)S(=O)(=O)c1ccc2c(c1)c(=O)c(C(=O)NCc1ccco1)cn2C,inconclusive: 103%
19,CCOC(=O)c1nnsc1Nc1ccc(C)c(C)c1,inactive: 118%
20,CCCC12CN3CCN(CC(C3)/C1=N\NC(=O)c1ccccc1Cl)C2,inactive: 103%
21,CCC(=O)OCC(=O)Nc1cc([N+](=O)[O-])ccc1Cl,inconclusive: 102%
22,CN(C)c1ccc(-c2ccc([C@H]3[C@@H]4C=CCC[C@@]4(C)C(=O)N3Cc3ccccc3)c(F)c2)cc1,inconclusive: 89.1%
23,C=CCn1c(C)cc(C2=NNC(=Nc3ccc(C)cc3)SC2)c1C,inconclusive: 82%

row,Compound,binding response (% of control)
1,COc1cc(C(CCN2CCCC2)c2c(OC)cc(OC)c3c(-c4ccccc4)cc(=O)oc23)cc(OC)c1OC (centres undefined),inconclusive: 71.4%
2,Cc1ccc2c(c1)c1ncn(Cc3ccc(F)cc3)c(=O)c1n2C,inconclusive: 98.1%
3,Cc1nc(N2CCOCC2)[nH]c(=O)c1[N+](=O)[O-],inconclusive: 133%
4,COc1cccc(NC(=O)NC(C)C2CC3CCC2C3)c1 (centres undefined),inconclusive: 123%
5,COc1ccc(NC(=O)c2cccc(Cn3cc(Br)cn3)c2)cn1,inactive: 101%
6,NS(=O)(=O)c1ccc(NC(=S)NC(=O)c2cccc(Br)c2)cc1,inconclusive: 97.2%
7,C=CCn1c(SCC(=O)c2c(C)[nH]c3ccccc23)nnc1-c1ccncc1,inconclusive: 125%
8,Cc1ccc(C)c(NC(=O)CSc2nnc(CNC(=O)c3cccs3)o2)c1,inconclusive: 128%
9,CN1CCN(NC(=O)CN2C(=O)/C(=C/c3ccccc3F)SC2=S)CC1,inactive: 100%
10,O=S(=O)(NC(=S)NC1CCCCC1)c1ccc(Br)cc1,inactive: 86%
11,N#Cc1nc(-c2ccc(F)cc2)oc1NCc1ccco1,inconclusive: 98.2%
12,COc1ccc(OCC(=O)N2CCN(c3nnc(-c4ccc(C)cc4)c4ccccc34)CC2)cc1,inconclusive: 73.4%
13,Cc1cccc(Nc2c([N+](=O)[O-])c(=O)oc3ccccc23)c1,inconclusive: 167%
14,CC(=O)c1cn(CC(=O)Nc2c(C)cccc2C)c2ccccc12,inactive: 97.7%
15,O=C1CNC(=O)/C(=C/c2ccco2)N1,inactive: 102%
16,O=C(O)COc1ccccc1/C=N/NC(=O)c1cc(-c2ccccc2)nc2ccccc12,inconclusive: 29.7%
17,C/C(=N/NC(=O)CNC(=O)Cc1ccc(Cl)cc1)c1ccco1,inconclusive: 99.4%
18,O=S(=O)(c1ccc(NC(=S)NN=C2CCCCC2)cc1)N1CCOCC1,inconclusive: 101%
19,CC1(C)COC(Cn2c3ccccc3c3ccccc32)O1 (centres undefined),inconclusive: 81.9%
20,Cc1cccc(C)c1-n1c(C)nn(-c2ncc(C(F)(F)F)cc2Cl)c1=O,inconclusive: 94.7%
